Results taken from publication doi:10.1101/522284.

What was measured:
Experiment in all cases: affinity purification with mass spectrometry
[1] = biological target: Tau-RD* (FLAG-tagged human Tau-RD, Q244-E372, ΔK280) (human) (UniProt P10636)
[2] = biological target: Tau-RD* (FLAG-tagged human Tau-RD, Q244-E372, ΔK280) (human) (UniProt P10636); remark: listed apart in the source
[3] = biological target: Tau-RD* (FLAG-tagged human Tau-RD, Q244-E372, ΔK280) (human) (UniProt P10636); remark: listed apart in the source

Row | Molecule | binding [1] | binding [2] | binding [3]
1 | CTBP1 (from UniProt Q9Z2F5 1-430) | binds | binds | no binding (only Tau-RD* fibrils)
2 | FBXO3 (protein, UniProt D4ABP9 1-480) MAAVEAETGLLTLESLPTDPLLLILSFVDYRDLINCCYVSRRLSQLSTHDPLWRRHCKKYWLITEEEKARKNQCWKSLFIATYSDVGRYINHYAAIKKAWDDLKKYLEPRCPRMVLSLKEGAREEDLDAVEAQIGCKLPDDYRCSYRIHNGQKLVVPGLLGSMALSNHYRSEDLLDVDTAAGGFQQRQGLKYCLPLTFCIHTGLSQYIAVEAAEGRNKNEVFYQCPDQMARNPAAIDMFIIGATFTDWFTSYVNNVVSGGFPIIRDQIFRYIHDPECVATTGDITVSVSTSFLPELSSVHPPHYFFTYRIRIEMSRDALPEKACQLDSRYWRITNAKGDVEEVQGPGVVGEFPIISPGRIYEYTSCTTFSTTSGYMEGYYTFHFLYFKDKVFNVAIPRFHMACPTFRVSIARLEMGPDEYEEMEEEAEEEEEEENDDSADMDESDESDEDENESDEGEGEERRRRVFDVPIRRRRCSRLF | binds | binds | no binding (only Tau-RD* fibrils)

Read-outs that look alike come from different tables or passages of the source. These are yes or no findings as the source states them, for the method shown. Binding seen in cells or lysates may run through a third protein. These calls come from enrichment with a bait or labelling near it, and not all partners need be listed. For part of these data: A no says only that the protein was not detected with the bait.
